According to US12421242B2, “Substituted tetrahydropyrrolo-pyridinone compounds and their use in treating medical conditions” (Karuna Therapeutics, Inc., priority 2022, dated 2025):
Structures were worked out from names or drawings and are uncertain.

The chains behind the UniProt entries cited, without tags or fusion partners.
UniProt P08173, whole entry: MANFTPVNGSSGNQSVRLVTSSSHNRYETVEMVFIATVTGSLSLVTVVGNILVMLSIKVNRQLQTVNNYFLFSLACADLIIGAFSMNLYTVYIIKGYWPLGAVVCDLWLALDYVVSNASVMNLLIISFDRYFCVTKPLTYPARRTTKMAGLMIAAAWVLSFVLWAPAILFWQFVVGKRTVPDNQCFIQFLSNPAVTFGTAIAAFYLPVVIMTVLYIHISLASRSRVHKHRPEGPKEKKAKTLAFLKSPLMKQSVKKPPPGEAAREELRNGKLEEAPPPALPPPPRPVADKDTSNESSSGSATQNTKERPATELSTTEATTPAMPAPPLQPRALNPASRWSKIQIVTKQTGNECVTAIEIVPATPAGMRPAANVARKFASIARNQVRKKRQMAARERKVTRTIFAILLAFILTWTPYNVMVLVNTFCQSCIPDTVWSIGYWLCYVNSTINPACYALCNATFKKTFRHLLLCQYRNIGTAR
UniProt P08485, whole entry: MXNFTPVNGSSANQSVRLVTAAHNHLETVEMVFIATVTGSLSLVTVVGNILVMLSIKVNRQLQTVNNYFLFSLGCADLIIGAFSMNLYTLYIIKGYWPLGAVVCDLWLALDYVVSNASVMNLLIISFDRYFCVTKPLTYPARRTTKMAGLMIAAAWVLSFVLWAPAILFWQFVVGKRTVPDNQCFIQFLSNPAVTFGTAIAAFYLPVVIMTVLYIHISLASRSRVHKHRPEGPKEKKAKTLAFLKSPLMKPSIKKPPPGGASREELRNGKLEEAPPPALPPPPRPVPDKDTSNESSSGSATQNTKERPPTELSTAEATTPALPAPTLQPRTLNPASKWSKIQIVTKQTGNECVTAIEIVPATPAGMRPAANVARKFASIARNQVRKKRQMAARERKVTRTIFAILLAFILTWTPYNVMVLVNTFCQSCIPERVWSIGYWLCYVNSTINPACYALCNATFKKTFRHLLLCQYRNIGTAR

Experiments:
hM4 receptors = hM4 receptors (Homo sapiens, UniProt P08173); test: Human M4 PAM pERK assay; details: read-out: Human M4 PAM pERK EC50, PAM mode
Experimental: (§1) Chinese hamster ovary (CHO) cells expressing either hM4 or rM4 receptors were frozen in assay ready vials (5×10^6 cells/vial) after bulking-up in culture. The day before an assay, vial(s) were thawed and cells seeded in 384 well white proxiplates at 1000/well for hM4 cells and at 2000/well for rM4 cells, in 10 μL of growth media (Hams/F12 with glutamax and 10% FCS) and incubated overnight at 37° C./5% CO2.
(§2) On the following morning, the growth media was removed by ‘flicking out’ over a bin, patting the inverted plate onto tissue, and then replacing with 10 μL of wash media (Hams/F12 with glutamax and 8 mM HEPES, NB: serum free). Then, the wash media was removed in the same way and replaced with 8 μL/well of the serum free media. Plates were then re-incubated for a further 4 hours at 37° C./5% CO2. […]
(§3) After the 4-hour incubation in serum free media, a 4 μL aliquot of the 3× compound solution containing an EC20 of acetylcholine (10 nM final concentration) was added to the cell plate using a 384 well plate to plate transfer. […] Then, a final addition of 4 μL/well of antibody detection mix, containing both the Europium-Cryptate (donor) and d2 (acceptor) tagged detection components, was added followed by a further 2-hour incubation at RT, and then the plate was read using a TR-FRET (time resolved fluorescence resonance energy transfer) based protocol.

rM4 receptors = rM4 receptors (Rattus norvegicus, UniProt P08485); test: Rat M4 PAM pERK assay; details: read-out: Rat M4 PAM pERK EC50, PAM mode
Experimental: as §1, §2, §3

`Cc1cc(=O)n(C)c2c1CN(C(=O)c1cnn(C)c1)C2` showed an EC50 (hM4 receptors) of 100 to 500 nM and an EC50 (rM4 receptors) of over 2000 nM.
